From patent US8476434B2, “Protein kinase modulators and method of use” (Amgen Inc., priority 2004, dated 2013)
Some of these results come from one statement about several compounds together.

By UniProt entry, the sequences of proteins in these tests, tags left out. Residues count along the entry.
UniProt Q02763, 23-1124: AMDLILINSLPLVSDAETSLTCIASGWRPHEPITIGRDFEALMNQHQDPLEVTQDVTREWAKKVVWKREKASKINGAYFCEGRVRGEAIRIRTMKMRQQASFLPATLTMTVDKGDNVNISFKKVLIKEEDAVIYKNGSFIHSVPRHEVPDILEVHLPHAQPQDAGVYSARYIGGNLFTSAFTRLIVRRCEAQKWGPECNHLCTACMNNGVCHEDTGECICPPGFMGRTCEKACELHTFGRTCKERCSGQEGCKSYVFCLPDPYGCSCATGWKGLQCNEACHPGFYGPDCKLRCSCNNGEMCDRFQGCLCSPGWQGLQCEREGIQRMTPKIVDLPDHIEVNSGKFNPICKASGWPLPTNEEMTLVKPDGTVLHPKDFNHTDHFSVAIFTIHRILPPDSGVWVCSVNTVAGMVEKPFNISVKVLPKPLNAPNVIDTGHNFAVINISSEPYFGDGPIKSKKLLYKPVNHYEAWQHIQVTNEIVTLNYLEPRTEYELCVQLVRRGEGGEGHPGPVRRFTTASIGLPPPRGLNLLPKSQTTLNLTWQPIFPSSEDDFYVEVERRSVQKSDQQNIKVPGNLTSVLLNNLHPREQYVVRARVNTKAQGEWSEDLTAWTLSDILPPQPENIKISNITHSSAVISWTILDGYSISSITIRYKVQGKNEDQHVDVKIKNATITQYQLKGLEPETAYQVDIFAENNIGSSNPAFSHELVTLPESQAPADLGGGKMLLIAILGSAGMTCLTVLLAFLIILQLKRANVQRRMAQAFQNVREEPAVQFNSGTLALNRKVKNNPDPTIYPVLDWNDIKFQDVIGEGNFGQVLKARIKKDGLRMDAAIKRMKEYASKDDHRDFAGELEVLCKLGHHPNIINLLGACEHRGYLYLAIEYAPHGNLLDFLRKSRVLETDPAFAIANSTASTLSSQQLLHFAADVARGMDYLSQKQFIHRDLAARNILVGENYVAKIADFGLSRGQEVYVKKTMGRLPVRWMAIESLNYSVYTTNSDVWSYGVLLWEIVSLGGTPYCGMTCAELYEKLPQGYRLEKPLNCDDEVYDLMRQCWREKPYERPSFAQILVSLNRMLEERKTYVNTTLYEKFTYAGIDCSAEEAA

Assays:
Tie-2 kinase enzyme = Tie-2 kinase enzyme (Homo sapiens, UniProt Q02763); assay: Tie-2 Homogenous Time Resolved Fluorescent (HTRF) kinase assay; assay type: biochemical; conditions: read-out: IC50's for the inhibition of Tie-2 as measured by the HTRF assay
AuroraA-TPX2 KD GST = target: T1, AuroraA-TPX2 KD GST (Homo sapiens, UniProt O14965); assay: AuroraA-TPX2 Homogeneous Time Resolved Fluorescent (HTRF) kinase assay; assay type: biochemical; conditions: read-out: activity in the Aurora kinase A HTRF assay
T1 construct: AuroraA-TPX2 KD GST; GST
T1 sequence (O14965 133-383 limits assumed): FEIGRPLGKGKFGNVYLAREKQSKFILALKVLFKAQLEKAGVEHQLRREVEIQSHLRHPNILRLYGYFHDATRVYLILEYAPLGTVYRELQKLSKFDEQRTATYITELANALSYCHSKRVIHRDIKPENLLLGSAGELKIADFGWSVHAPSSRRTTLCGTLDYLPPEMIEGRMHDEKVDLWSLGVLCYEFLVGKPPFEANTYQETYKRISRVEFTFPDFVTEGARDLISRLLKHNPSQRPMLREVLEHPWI
T1 sequence (Q9ULW0 1-43 partner limits assumed): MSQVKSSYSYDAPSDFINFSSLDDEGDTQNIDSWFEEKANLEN

Row | SMILES | IC50 (Tie-2 kinase enzyme) [µM] | IC50 (AuroraA-TPX2 KD GST) [µM]
1 | Cc1ccc(NC(=O)c2ccccc2)cc1Nc1ncccc1-c1ccncn1 [Example 211, N-(4-methyl-3-((3-(4-pyrimidinyl)-2-pyridinyl)amino)phenyl)benzamide] | < 5 | < 10
2 | CNc1ncnc(-c2cccnc2Oc2ccc(F)c(C(=O)Nc3cc(Br)ccc3N(C)CCCN(C)C)c2)n1 [Example 529, N-(5-bromo-2-((3-(dimethylamino)propyl) (methyl)amino)phenyl)-2-fluoro-5-((3-(4-(methylamino)-1,3,5-triazin-2-yl)-2-pyridinyl)oxy)benzamide] | < 5 | < 10
3 | CNc1nccc(-c2cccnc2Oc2cc(C(=O)Nc3cc(CN4CCN(C)CC4)cc(C(F)(F)F)c3)ccc2C)n1 [Example 539, 4-methyl-3-((3-(2-(methylamino)-4-pyrimidinyl)-2-pyridinyl)oxy)-N-(3-((4-methyl-1-piperazinyl)methyl)-5-(trifluoromethyl)phenyl) benzamide] | < 5 | < 10
4 | CNc1nccc(-c2cccnc2Oc2ccc(CC(=O)Nc3cccc(Br)c3)cc2)n1 [Example 542, N-(3-bromophenyl)-2-(4-((3-(2-(methylamino)-4-pyrimidinyl)-2-pyridinyl)oxy)phenyl) acetamide] | < 5 | < 10
5 | CNc1nccc(-c2cccnc2Oc2ccc(CC(=O)Nc3cc(F)cc(C(F)(F)F)c3)cc2)n1 [Example 544, N-(3-fluoro-5-(trifluoromethyl)phenyl)-2-(4-((3-(2-(methylamino)-4-pyrimidinyl)-2-pyridinyl)oxy)phenyl) acetamide] | < 5 | < 10
6 | CC(C)(C)c1ccc(NC(=O)c2cccc(Oc3ncccc3-c3ccncn3)c2)cc1 [Example 554, N-(4-(1,1-dimethylethyl)phenyl)-3-((3-(4-pyrimidinyl)-2-pyridinyl)oxy)benzamide] | < 5 | < 10
7 | CNc1ncnc(-c2cccnc2Oc2ccc(OC)c(C(=O)Nc3cc(C(F)(F)F)ccc3N(C)CCCN(C)C)c2)n1 [Example 627, N-(2-((3-(dimethylamino)propyl) (methyl)amino)-5-(trifluoromethyl)phenyl)-2-methoxy-5-(3-(4-(methylamino)-1,3,5-triazin-2-yl)pyridin-2-yloxy)benzamide] | < 5 | < 10
8 | Cc1cc(NC(=O)Nc2cc(C(F)(F)F)ccc2F)ccc1Oc1ncccc1-c1ccncn1 [Example 667, N-(2-fluoro-5-(trifluoromethyl)phenyl)-N′-(3-methyl-4-((3-(4-pyrimidinyl)-2-pyridinyl)oxy)phenyl)urea] | < 5 | < 10
9 | O=C(Nc1cccc(C(F)(F)F)c1)Nc1ccc(Oc2ncccc2-c2ccncn2)c2ccccc12 [Example 669, N-(4-((3-(4-pyrimidinyl)-2-pyridinyl)oxy)-1-naphthalenyl)-N′-(3-(trifluoromethyl)phenyl)urea] | < 5 | < 10
10 | Cc1cc(Oc2ncccc2-c2ccncn2)c(C)cc1NC(=O)Nc1cccc(C(F)(F)F)c1 [Example 671, N-(2,5-dimethyl-4-((3-(4-pyrimidinyl)-2-pyridinyl)oxy)phenyl)-N′-(3-(trifluoromethyl)phenyl)urea] | < 5 | < 10
11 | Cc1cc(NC(=O)Nc2cc(C(F)(F)F)ccc2Cl)ccc1Oc1ncccc1-c1ccncn1 [Example 675, N-(2-chloro-5-(trifluoromethyl)phenyl)-N′-(3-methyl-4-((3-(4-pyrimidinyl)-2-pyridinyl)oxy)phenyl)urea] | < 5 | < 10
12 | COc1ccc(Cl)cc1NC(=O)Nc1ccc(Oc2ncccc2-c2ccncn2)c(C)c1 [Example 676, N-(5-chloro-2-(methyloxy)phenyl)-N′-(3-methyl-4-((3-(4-pyrimidinyl)-2-pyridinyl)oxy)phenyl)urea] | < 5 | < 10
13 | Cc1cc(NC(=O)Nc2cc(C(F)(F)F)cc(C(F)(F)F)c2)ccc1Oc1ncccc1-c1ccncn1 [Example 677, N-(3,5-bis(trifluoromethyl)phenyl)-N′-(3-methyl-4-((3-(4-pyrimidinyl)-2-pyridinyl)oxy)phenyl)urea] | < 5 | < 10
14 | O=C(Nc1ccc(Oc2ncccc2-c2ccncn2)cc1)Nc1cccc(C(F)(F)F)c1 [Example 681, N-(4-((3-(4-pyrimidinyl)-2-pyridinyl)oxy)phenyl)-N′-(3-(trifluoromethyl)phenyl)urea] | < 5 | < 10
15 | O=C(Nc1cc(C(F)(F)F)ccc1F)Nc1ccc(Oc2ncccc2-c2ccncn2)c2ccccc12 [Example 684, N-(2-fluoro-5-(trifluoromethyl)phenyl)-N′-(4-((3-(4-pyrimidinyl)-2-pyridinyl)oxy)-1-naphthalenyl)urea] | < 5 | < 10
16 | O=C(Nc1cccc(C(F)(F)F)c1)Nc1cc(Cl)c(Oc2ncccc2-c2ccncn2)c(Cl)c1 [Example 686, N-(3,5-dichloro-4-((3-(4-pyrimidinyl)-2-pyridinyl)oxy)phenyl)-N′-(3-(trifluoromethyl)phenyl)urea] | < 5 | < 10

Row | SMILES | IC50 (Tie-2 kinase enzyme) [µM] | IC50 (AuroraA-TPX2 KD GST) [µM]
17 | O=C(Nc1cccc(C(F)(F)F)c1)Nc1ccc(Oc2ncccc2-c2ccncn2)c2ncccc12 [Example 688, N-(8-((3-(4-pyrimidinyl)-2-pyridinyl)oxy)-5-quinolinyl)-N′-(3-(trifluoromethyl)phenyl)urea] | < 5 | < 10
18 | O=C(Nc1cc(C(F)(F)F)ccc1Cl)Nc1ccc(Oc2ncccc2-c2ccncn2)c2ncccc12 [Example 689, N-(2-chloro-5-(trifluoromethyl)phenyl)-N′-(8-((3-(4-pyrimidinyl)-2-pyridinyl)oxy)-5-quinolinyl)urea] | < 5 | < 10
19 | CNc1nccc(-c2cccnc2Oc2ccc(NC(=O)c3ccncc3)cc2C)n1 [Example 955, N-(3-methyl-4-((3-(2-(methylamino)-4-pyrimidinyl)-2-pyridinyl)oxy)phenyl)-4-pyridinecarboxamide] | – | < 10
20 | CNc1ncnc(-c2cccnc2Oc2ccc(NC(=O)Nc3ccccc3)cc2)n1 [Example 962, N-(4-((3-(4-(methylamino)-1,3,5-triazin-2-yl)-2-pyridinyl)oxy)phenyl)-N′-phenylurea] | – | < 10
21 | CNc1nccc(-c2cccnc2Oc2ccc(NC(=O)c3cc(C(C)(C)C)nn3C)cc2)n1 [Example 976, 3-(1,1-dimethylethyl)-1-methyl-N-(4-((3-(2-(methylamino)-4-pyrimidinyl)-2-pyridinyl)oxy)phenyl) 1H-pyrazole-5-carboxamide] | – | < 10
22 | CNc1nccc(-c2cccnc2Oc2ccc(NC(=O)C(=O)c3ccccc3)cc2)n1 [Example 982, N-(4-((3-(2-(methylamino)-4-pyrimidinyl)-2-pyridinyl)oxy)phenyl)-2-oxo-2-phenylacetamide] | – | < 10
23 | CNc1nccc(-c2cccnc2Oc2ccc(NC(=O)c3ccc4[nH]nnc4c3)cc2C)n1 [Example 984, N-(3-methyl-4-((3-(2-(methylamino)-4-pyrimidinyl)-2-pyridinyl)oxy)phenyl)-1H-1,2,3-benzotriazole-5-carboxamide] | – | < 10
24 | CNc1nccc(-c2cccnc2Oc2ccc(NC(=O)c3ccc(O)nc3)cc2C)n1 [Example 985, 6-hydroxy-N-(3-methyl-4-((3-(2-(methylamino)-4-pyrimidinyl)-2-pyridinyl)oxy)phenyl)-3-pyridinecarboxamide] | – | < 10
25 | CNc1nccc(-c2cccnc2Oc2ccc(NC(=O)c3cccnc3)cc2C)n1 [Example 986, N-(3-methyl-4-((3-(2-(methylamino)-4-pyrimidinyl)-2-pyridinyl)oxy)phenyl)-3-pyridinecarboxamide] | – | < 10
26 | CNc1nccc(-c2cccnc2Oc2ccc(NC(=O)c3ccc4[nH]c(C)nc4c3)cc2C)n1 [Example 988, 2-methyl-N-(3-methyl-4-((3-(2-(methylamino)-4-pyrimidinyl)-2-pyridinyl)oxy)phenyl)-1H-benzimidazole-5-carboxamide] | – | < 10
27 | CNc1nccc(-c2cccnc2Oc2ccc(NC(=O)Nc3ccc(N(C)C)cc3)cc2)n1 [Example 993, N-(4-(dimethylamino)phenyl)-N′-(4-((3-(2-(methylamino)-4-pyrimidinyl)-2-pyridinyl)oxy)phenyl)urea] | – | < 10
28 | Cc1ccc(NC(=O)c2ccc(OCc3ccccc3)cc2)cc1Oc1ncccc1-c1ccncn1 [Example 1021, N-(4-methyl-3-((3-(4-pyrimidinyl)-2-pyridinyl)oxy)phenyl)-4-((phenylmethyl)oxy) benzamide] | – | < 10
29 | Cc1cc(NC(=O)c2cccc(C(F)(F)F)c2)ccc1Oc1ncccc1-c1ccncn1 [Example 1153, N-(3-methyl-4-((3-(4-pyrimidinyl)-2-pyridinyl)oxy)phenyl)-3-(trifluoro-methyl)benzamide] | – | < 10
30 | Cc1cc(NC(=O)c2ccccc2)ccc1Oc1ncccc1-c1ccncn1 [Example 1154, N-(3-methyl-4-((3-(4-pyrimidinyl)-2-pyridinyl)oxy)phenyl) benzamide] | – | < 10
31 | Cc1cc(NC(=O)Nc2ccccc2)ccc1Oc1ncccc1-c1ccncn1 [Example 1156, N-(3-methyl-4-((3-(4-pyrimidinyl)-2-pyridinyl)oxy)phenyl)-N′-phenylurea] | – | < 10
32 | CCN(CC)CCNc1nccc(-c2cccnc2Oc2ccc(NC(=O)c3cccc(C(F)(F)F)c3)cc2C)n1 [Example 1157, N-(4-((3-(2-((2-(di-ethylamino)ethyl)amino)-4-pyrimidinyl)-2-pyridinyl)oxy)-3-methylphenyl)-3-(trifluoromethyl) benzamide] | – | < 10
